Measured values as given in the supplement of paper PMC8326762, “A Small Molecule Inhibitor of Pex3–Pex19 Interaction Disrupts Glycosome Biogenesis and Causes Lethality in Trypanosoma brucei” (Frontiers in Cell and Developmental Biology, 2021).
Where a name gives a salt, the structure may show the parent alone. This is one part of the list. This is a noisy data set.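 Optical density at 600 nm measured yeast growth. Because the two-hybrid strains grew without histidine, growth required Pex3–Pex19 binding. Trypanosome selectivity meant a compound inhibited the trypanosome-pair strain's growth by more than 65% but the human-pair strain's by less than 65%.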

Key:
[1] = test system: Saccharomyces cerevisiae HF7c pdr5Δ; test: general growth inhibition of yeast HF7c pdr5Δ in -Leu -Trp medium, relative to DMSO; higher = stronger general growth inhibition; conditions: 100 µM; 24 h
[2] = test system: human PEX3-PEX19 interaction (yeast two-hybrid); test: growth inhibition of yeast two-hybrid strain reporting HsPex3-HsPex19 interaction, relative to DMSO; higher = stronger inhibition of human Pex3-Pex19 interaction / growth; conditions: 100 µM; 24 h; 3-aminotriazole 10 mM
[3] = test system: T. brucei Pex3-Pex19 interaction (yeast two-hybrid); test: growth inhibition of yeast two-hybrid strain reporting TbPex3-TbPex19 interaction, relative to DMSO; higher = stronger inhibition of T. brucei Pex3-Pex19 interaction / growth; conditions: 100 µM; 24 h

SMILES	general growth inhibition [1] [%]	growth inhibition [2] [%]	growth inhibition [3] [%]
O=C(O)COCCN1CCN(C(c2ccccc2)c2ccc(Cl)cc2)CC1 (configuration not stated) [Cetirizine dihydrochloride]	31.1	45.4	61
OCCN1CCN(CCCN2c3ccccc3Sc3ccc(C(F)(F)F)cc32)CC1 [Fluphenazine dihydrochloride]	-4.14	-15.6	22.5
NC(=O)c1cc[n+](CC2=C(C(=O)O)N3C(=O)[C@@H](NC(=O)C(c4ccccc4)S(=O)(=O)[O-])[C@H]3SC2)cc1 (some centres not stated) [Cefsulodin sodium salt hydrate]	37.2	47.7	56.7
COc1ccc2[nH]cc(CCNC(C)=O)c2c1 [Melatonin]	41.3	48.5	68.2
COc1ccc(NC(=O)c2ccc(-c3ccc(-c4noc(C)n4)cc3C)cc2)cc1N1CCN(C)CC1	38.2	41.1	54.1
O=C(NCCN1CCOCC1)c1ccc(Cl)cc1 [Moclobemide]	56.2	44	70.9
CC(O)C(O)[C@H]1CNc2nc(N)[nH]c(=O)c2N1 (stereo partly drawn) [(6R)-5,6,7,8-Tetrahydro-L-biopterin hydrochloride]	53.9	39.8	70.1
CCCNCC(O)COc1ccccc1C(=O)CCc1ccccc1 (configuration not stated) [Propafenone hydrochloride]	39	49.3	63.6
CC(C)(C)c1ccc(C(=O)CCCN2CCC(OC(c3ccccc3)c3ccccc3)CC2)cc1 [Ebastine]	86.8	82.7	80.7
CC(C)C[C@H](NP(=O)(O)O[C@H]1O[C@H](C)[C@@H](O)[C@H](O)[C@@H]1O)C(=O)N[C@@H](Cc1c[nH]c2ccccc12)C(=O)O [Phosphoramidon disodium]	51.6	50.8	68.2
CSc1nc(N)c2ncn([C@@H]3O[C@H](COP(=O)(O)OP(=O)(O)O)[C@H](O)C3O)c2n1 (some centres not stated)	34	31.9	59.3
CN(C)C/C=C(/c1ccc(Br)cc1)c1cccnc1 [Zimelidine dihydrochloride]	10.9	7.86	35.9
CCCCCCC(=O)OC1CC(C)(C)NC(C)(C)C1 [TMPH hydrochloride]	15.8	4.92	28.5
Cc1cc(Cl)ccc1OCCCC(=O)NO [Droxinostat]	5.79	-0.556	22.2

Looked up by structure from above:
SMILES	general growth inhibition [1] [%]	growth inhibition [2] [%]	growth inhibition [3] [%]
CSc1nc(N)c2ncn([C@@H]3O[C@H](COP(=O)(O)OP(=O)(O)O)[C@H](O)C3O)c2n1 (some centres not stated)	34	31.9	59.3
O=C(O)COCCN1CCN(C(c2ccccc2)c2ccc(Cl)cc2)CC1 (configuration not stated) [Cetirizine dihydrochloride]	31.1	45.4	61
